Laboratory results: patent US20230193513A1
No constants are given. Whether binding was seen depends on the method and setting. Some binding calls cover weakened binding; strength is not graded here.

Sequences of proteins named here, by UniProt entry; tags and fusion partners are left off. A change or cut given only in a name is not applied to a line headed by its entry.
UniProt P43220: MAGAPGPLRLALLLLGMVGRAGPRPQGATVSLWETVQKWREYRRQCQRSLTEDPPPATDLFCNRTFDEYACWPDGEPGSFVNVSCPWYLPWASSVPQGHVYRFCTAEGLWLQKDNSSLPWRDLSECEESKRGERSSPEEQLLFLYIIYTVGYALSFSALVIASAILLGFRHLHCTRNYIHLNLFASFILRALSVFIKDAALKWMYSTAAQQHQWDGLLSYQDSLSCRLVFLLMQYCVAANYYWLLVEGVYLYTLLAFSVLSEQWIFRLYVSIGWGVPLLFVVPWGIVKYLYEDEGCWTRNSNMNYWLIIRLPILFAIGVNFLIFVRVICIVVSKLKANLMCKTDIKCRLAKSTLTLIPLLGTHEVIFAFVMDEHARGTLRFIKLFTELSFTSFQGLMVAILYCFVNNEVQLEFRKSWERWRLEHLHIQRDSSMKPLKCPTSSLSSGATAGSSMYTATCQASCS

Target: flag-GLP1R-GFP expressed on CHO cells (Homo sapiens (Human)) (UniProt P43220)
Assay: flow cytometry, IgG on CHO-GLP1R cells; bound equally to CHO-parent cells (non-specific binder)

binding: binds
B1: GLP1R-238 (antibody, human IgG2, lambda, V domains shown)
VH: QVQLVQSGAEVKKPGSSVKVSCKASGGSFSSHAISWVRQAPGQGLEWMGGIIPIFGAPNYAQKFQGRVTITADESTSTAYMELSSLRSEDTAVYYCARANQHFSQAGRAARVPGPSSSLGPRGYHYYGMDVWGQGTLVTVSS
VL: QSVLTQPPSVSAAPGQKVTISCSGSTSNIANNYVSWYQQLPGTAPKLLIYANNRRPSGIPDRFSGSKSGTSATLGITGLQTGDEADYYCGAWDVRLDVGVFGGGTKLTVLG
